# No constants are given. Whether binding was seen depends on the method and setting. In cells and extracts the contact can be indirect. Some results given as binding are weak or reduced against the parent protein; the word gives no strength. Sequences can lack the tags named with a protein.
# B1: HA-RAB32 (protein, UniProt Q13637 1-225)
# chain: MAGGGAGDPGLGAAAAPAPETREHLFKVLVIGELGVGKTSIIKRYVHQLFSQHYRATIGVDFALKVLNWDSRTLVRLQLWDIAGQERFGNMTRVYYKEAVGAFVVFDISRSSTFEAVLKWKSDLDSKVHLPNGSPIPAVLLANKCDQNKDSSQSPSQVDQFCKEHGFAGWFETSAKDNINIEEAARFLVEKILVNHQSFPNEENDVDKIKLDQETLRAENKSQCC
# Experiments:
# [1] = target: T1, Flag-MCT1 (not stated (human or mouse cDNA cloned)) (UniProt P53985); assay: co-IP; HEK293T cells transfected with HA-RAB32 and Flag-MCT1/4, with or without Salmonella infection; whole-cell extracts incubated overnight with anti-Flag agarose, 5-6 washes with low-salt lysis buffer, blot with anti-HA and anti-Flag
# T1 sequence: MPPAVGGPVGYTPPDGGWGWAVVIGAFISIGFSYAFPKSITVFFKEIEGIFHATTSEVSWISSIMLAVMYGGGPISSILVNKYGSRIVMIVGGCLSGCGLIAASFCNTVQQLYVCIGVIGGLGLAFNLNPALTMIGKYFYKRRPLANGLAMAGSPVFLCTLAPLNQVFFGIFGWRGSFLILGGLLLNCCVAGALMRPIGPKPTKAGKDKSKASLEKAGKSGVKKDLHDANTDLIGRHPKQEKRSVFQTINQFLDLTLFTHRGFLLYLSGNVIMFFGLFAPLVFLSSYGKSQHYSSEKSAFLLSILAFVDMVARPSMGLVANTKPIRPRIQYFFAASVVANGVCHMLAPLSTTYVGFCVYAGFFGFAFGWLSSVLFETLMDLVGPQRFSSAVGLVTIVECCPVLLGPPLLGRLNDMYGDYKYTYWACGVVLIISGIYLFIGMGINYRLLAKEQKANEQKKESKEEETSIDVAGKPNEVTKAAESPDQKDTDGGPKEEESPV
# [2] = target: T2, Flag-MCT4 (not stated (human or mouse cDNA cloned)) (UniProt O15427); assay: as above
# T2 sequence: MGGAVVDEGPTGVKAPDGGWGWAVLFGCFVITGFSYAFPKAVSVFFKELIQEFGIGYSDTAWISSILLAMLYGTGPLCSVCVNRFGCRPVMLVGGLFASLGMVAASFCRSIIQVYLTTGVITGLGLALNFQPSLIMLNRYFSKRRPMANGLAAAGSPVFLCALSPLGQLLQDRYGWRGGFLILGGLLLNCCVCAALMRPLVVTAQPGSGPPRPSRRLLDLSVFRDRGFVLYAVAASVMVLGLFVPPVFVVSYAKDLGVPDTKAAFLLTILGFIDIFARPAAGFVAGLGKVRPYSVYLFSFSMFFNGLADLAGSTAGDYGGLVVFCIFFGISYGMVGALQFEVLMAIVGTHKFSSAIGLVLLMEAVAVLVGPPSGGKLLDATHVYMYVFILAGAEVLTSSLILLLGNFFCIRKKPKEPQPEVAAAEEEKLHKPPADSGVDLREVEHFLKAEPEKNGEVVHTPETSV
binder,measurement,setting,value
B1,binding,[1],binds
same,binding,[2],binds
